PubChem BioAssay AID1224829 | NIAID – 2016

Screen: 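Follow-up of TLR4-NF-kappaB regulators using six separate siRNAs for each gene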 (follow-up of hits)
Cell system: mouse RAW264.7 G9 macrophage reporter cells
Reagent: single siRNA against mouse genes, 100 nM
Time to read-out: 2 days of siRNA knock-down, then 40 min of LPS before fixing
Challenge: LPS (Salmonella minnesota R595) at 10 ng/ml
Read-out: 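Imaging of GFP-p65 after 40 min of LPS; nuclear over perinuclear ring intensity ratio, scaled to plate median and non-targeting control wells, given as z-score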
Direction: p65 translocation z-score and gene median z-score, per vendor: higher = more nuclear NF-kappaB p65 after LPS
Rule for the call: 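Active means the replicate-mean z-score lies beyond plus or minus 2, in either direction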
Meaning of the calls: active = changed p65 translocation (either direction); inactive = no clear change
This is an unselected part of about 3,800 reagents. 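Calls cover raised and lowered translocation; gene median uses one vendor's three siRNAs; qiagen siRNAs acted more weakly than ambion siRNAs.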 The numbers tell different reagents against one gene apart.

Krt8 (GeneID 16691) #1, siRNA vendor or control pool ambion single siRNA gave p65 translocation z-score, replicate mean -0.602; p65 translocation z-score, replicate 1 = -1.13; p65 translocation z-score, replicate 2 = -0.0763; gene median z-score, per vendor -1.57; inactive.
Krt8 (GeneID 16691) #2, siRNA vendor or control pool ambion single siRNA scored p65 translocation z-score, replicate mean -4.67; p65 translocation z-score, replicate 1 = -7.33; p65 translocation z-score, replicate 2 = -2.01; gene median z-score, per vendor -1.57; active.
Krt8 (GeneID 16691) #3, siRNA vendor or control pool ambion single siRNA gave gene median z-score, per vendor -1.57; inactive.
Krt8 (GeneID 16691) #4, siRNA vendor or control pool qiagen single siRNA gave p65 translocation z-score, replicate mean -1.06; p65 translocation z-score, replicate 1 = -0.522; p65 translocation z-score, replicate 2 = -1.6; gene median z-score, per vendor -0.439; inactive.
With Krt8 (GeneID 16691) #5, siRNA vendor or control pool qiagen single siRNA the deposit lists p65 translocation z-score, replicate mean 0.0819; p65 translocation z-score, replicate 1 = 1.29; p65 translocation z-score, replicate 2 = -1.13; gene median z-score, per vendor -0.439; inactive.
For Krt8 (GeneID 16691) #6, siRNA vendor or control pool qiagen single siRNA, the values are p65 translocation z-score, replicate mean -0.185; p65 translocation z-score, replicate 1 = -0.0142; p65 translocation z-score, replicate 2 = -0.356; gene median z-score, per vendor -0.439; inactive.
Mcoln2 (GeneID 68279) #1, siRNA vendor or control pool ambion single siRNA scored p65 translocation z-score, replicate mean -3.33; p65 translocation z-score, replicate 1 = -4.25; p65 translocation z-score, replicate 2 = -2.41; gene median z-score, per vendor -2.12; active.
Mcoln2 (GeneID 68279) #2, siRNA vendor or control pool ambion single siRNA scored p65 translocation z-score, replicate mean -2.62; p65 translocation z-score, replicate 1 = -1.82; p65 translocation z-score, replicate 2 = -3.42; gene median z-score, per vendor -2.12; active.
With Mcoln2 (GeneID 68279) #3, siRNA vendor or control pool ambion single siRNA, the entry reads p65 translocation z-score, replicate mean -0.701; p65 translocation z-score, replicate 1 = -0.323; p65 translocation z-score, replicate 2 = -1.08; gene median z-score, per vendor -2.12; inactive.
With Mcoln2 (GeneID 68279) #4, siRNA vendor or control pool qiagen single siRNA the deposit lists p65 translocation z-score, replicate mean -0.0984; p65 translocation z-score, replicate 1 = 0.611; p65 translocation z-score, replicate 2 = -0.808; gene median z-score, per vendor -0.171; inactive.
For Mcoln2 (GeneID 68279) #5, siRNA vendor or control pool qiagen single siRNA the deposit lists p65 translocation z-score, replicate mean 0.177; p65 translocation z-score, replicate 1 = -0.503; p65 translocation z-score, replicate 2 = 0.857; gene median z-score, per vendor -0.171; inactive.
Mcoln2 (GeneID 68279) #6, siRNA vendor or control pool qiagen single siRNA gave p65 translocation z-score, replicate mean -0.688; p65 translocation z-score, replicate 1 = -1.54; p65 translocation z-score, replicate 2 = 0.162; gene median z-score, per vendor -0.171; inactive.
Reps2 (GeneID 194590) #1, siRNA vendor or control pool ambion single siRNA scored p65 translocation z-score, replicate mean 1.6; p65 translocation z-score, replicate 1 = 2.4; p65 translocation z-score, replicate 2 = 0.793; gene median z-score, per vendor -1.89; inactive.
With Reps2 (GeneID 194590) #2, siRNA vendor or control pool ambion single siRNA the deposit lists p65 translocation z-score, replicate mean -1.89; p65 translocation z-score, replicate 1 = -2.56; p65 translocation z-score, replicate 2 = -1.23; gene median z-score, per vendor -1.89; inactive.
For Reps2 (GeneID 194590) #3, siRNA vendor or control pool ambion single siRNA the deposit lists p65 translocation z-score, replicate mean -3.51; p65 translocation z-score, replicate 1 = -2.84; p65 translocation z-score, replicate 2 = -4.18; gene median z-score, per vendor -1.89; active.
Reps2 (GeneID 194590) #4, siRNA vendor or control pool qiagen single siRNA gave p65 translocation z-score, replicate mean 3.71; p65 translocation z-score, replicate 1 = 3.21; p65 translocation z-score, replicate 2 = 4.2; gene median z-score, per vendor 0.837; active.
Reps2 (GeneID 194590) #5, siRNA vendor or control pool qiagen single siRNA showed p65 translocation z-score, replicate mean 0.837; p65 translocation z-score, replicate 1 = 0.171; p65 translocation z-score, replicate 2 = 1.5; gene median z-score, per vendor 0.837; inactive.
With Reps2 (GeneID 194590) #6, siRNA vendor or control pool qiagen single siRNA, the values are p65 translocation z-score, replicate mean -2.7; p65 translocation z-score, replicate 1 = -0.497; p65 translocation z-score, replicate 2 = -4.91; gene median z-score, per vendor 0.837; active.
For Kras (GeneID 16653) #1, siRNA vendor or control pool ambion single siRNA the deposit lists p65 translocation z-score, replicate mean 1.12; p65 translocation z-score, replicate 1 = 0.944; p65 translocation z-score, replicate 2 = 1.29; gene median z-score, per vendor -0.0534; inactive.
With Kras (GeneID 16653) #2, siRNA vendor or control pool ambion single siRNA, the values are p65 translocation z-score, replicate mean -0.339; p65 translocation z-score, replicate 1 = -0.0534; p65 translocation z-score, replicate 2 = -0.625; gene median z-score, per vendor -0.0534; inactive.
Kras (GeneID 16653) #3, siRNA vendor or control pool ambion single siRNA scored p65 translocation z-score, replicate mean -3.92; p65 translocation z-score, replicate 1 = -3.92; gene median z-score, per vendor -0.0534; active.
With Kras (GeneID 16653) #4, siRNA vendor or control pool qiagen single siRNA the deposit lists p65 translocation z-score, replicate mean -0.0992; p65 translocation z-score, replicate 1 = 0.354; p65 translocation z-score, replicate 2 = -0.553; gene median z-score, per vendor -0.0992; inactive.
For Kras (GeneID 16653) #5, siRNA vendor or control pool qiagen single siRNA, the values are p65 translocation z-score, replicate mean 1.25; p65 translocation z-score, replicate 1 = 1.49; p65 translocation z-score, replicate 2 = 1.01; gene median z-score, per vendor -0.0992; inactive.
With Kras (GeneID 16653) #6, siRNA vendor or control pool qiagen single siRNA, the entry reads p65 translocation z-score, replicate mean -1.13; p65 translocation z-score, replicate 1 = -1.44; p65 translocation z-score, replicate 2 = -0.818; gene median z-score, per vendor -0.0992; inactive.
With Ncoa5 (GeneID 228869) #1, siRNA vendor or control pool ambion single siRNA, the entry reads p65 translocation z-score, replicate mean -2.94; p65 translocation z-score, replicate 1 = -3.67; p65 translocation z-score, replicate 2 = -2.21; gene median z-score, per vendor -2.71; active.
For Ncoa5 (GeneID 228869) #2, siRNA vendor or control pool ambion single siRNA, the entry reads p65 translocation z-score, replicate mean -2.75; p65 translocation z-score, replicate 1 = -1.84; p65 translocation z-score, replicate 2 = -3.66; gene median z-score, per vendor -2.71; active.
Ncoa5 (GeneID 228869) #3, siRNA vendor or control pool ambion single siRNA showed p65 translocation z-score, replicate mean -2.71; p65 translocation z-score, replicate 1 = -3.1; p65 translocation z-score, replicate 2 = -2.32; gene median z-score, per vendor -2.71; active.
With Ncoa5 (GeneID 228869) #4, siRNA vendor or control pool qiagen single siRNA, the entry reads p65 translocation z-score, replicate mean -0.389; p65 translocation z-score, replicate 1 = -0.247; p65 translocation z-score, replicate 2 = -0.531; gene median z-score, per vendor -0.247; inactive.
Ncoa5 (GeneID 228869) #5, siRNA vendor or control pool qiagen single siRNA showed p65 translocation z-score, replicate mean 0.92; p65 translocation z-score, replicate 1 = 1.11; p65 translocation z-score, replicate 2 = 0.732; gene median z-score, per vendor -0.247; inactive.
Ncoa5 (GeneID 228869) #6, siRNA vendor or control pool qiagen single siRNA gave p65 translocation z-score, replicate mean -3.8; p65 translocation z-score, replicate 1 = -3.8; gene median z-score, per vendor -0.247; active.
